This note sets out measurements from PMC5256034.

Results are given in words; binding and its absence hold for the method and conditions named. Binding seen in cells or lysates may run through a third protein. Binding calls can cover weak binding; strength is not graded here. Where a sequence is shown, tags or fusion partners need not be part of it.

For the assay, the target named is T1, epitope-tagged chicken cyclin I (CCNI) (chicken) (UniProt F1P1K0).
T1 sequence: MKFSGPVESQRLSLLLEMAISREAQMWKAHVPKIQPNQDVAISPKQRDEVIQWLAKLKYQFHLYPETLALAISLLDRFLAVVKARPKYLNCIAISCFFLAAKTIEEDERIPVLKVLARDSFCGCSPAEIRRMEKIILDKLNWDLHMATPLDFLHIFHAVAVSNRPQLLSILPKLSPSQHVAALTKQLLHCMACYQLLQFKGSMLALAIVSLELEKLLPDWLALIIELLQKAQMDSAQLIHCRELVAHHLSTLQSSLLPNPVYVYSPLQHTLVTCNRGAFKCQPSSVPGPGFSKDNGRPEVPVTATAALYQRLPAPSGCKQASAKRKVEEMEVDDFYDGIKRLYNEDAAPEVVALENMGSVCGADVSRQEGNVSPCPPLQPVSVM
As to the kind of experiment: co-IP; HEK293 cells transfected with epitope-tagged proteins; lysis in 150 mM NaCl, 50 mM Tris pH 7.5, 1% Triton X-100; immobilized anti-Myc antibody, 4 °C overnight; western blot.

On to epitope-tagged chicken CDK5 (enzyme), for which the binding entry is recorded as “binds”.
